Reference: patent publication US10016515B2, “DMA, a bis-benzimidazole, confers radioprotection to the intestine via Akt/NFκB dual pathway activation” (Jawaharlal Nehru University, priority 2016, dated 2018)

Test system: HEK293 cells
Assay: Uptake and efflux study of DMA by flow cytometry
Type: cell-based, human

COc1ccc(-c2nc3cc(-c4nc5cc(N6CCN(C)CC6)ccc5[nH]4)ccc3[nH]2)cc1OC [DMA, 5-(4-methylpiperazin-1-yl)-2-[2′-(3,4-dimethoxyphenyl)-5′-benzimidazolyl]benzimidazole]
Time to maximum DNA bound intensity of DMA (uptake) (HEK293, 50 μM DMA): 2 h | Relative DMA intensity (HEK293, 72 h after 2 h incubation with 50 μM DMA): ~14%
